{"source": "PubChem BioAssay AID504834", "about": "(National Center for Advancing Translational Sciences (NCATS), 2011)", "note": "The whole screen tested about 320,000 compounds, of which about 22,000 (6.9%) were called active. The shares of active, inactive and inconclusive entries below differ from those in the screen. The call rests on the fitted dose curve; in most records, active means well fitted inhibition curve with a large enough effect; inconclusive means small, poorly fitted or top-dose-only effect, or another doubt; inactive means no such curve, though single readings can be large or run the other way. Potencies beside an inconclusive call are fits to weak or partial responses and may not hold up. On the % scale 0 is the no-effect control and ±100 the full control effect; potency means the concentration at half of the fitted maximal effect.", "data": [{"assay": "Primary qHTS for delayed death inhibitors of the malarial parasite plastid, 96 hour incubation", "details": "P. falciparum luciferase reporter growth; series mostly up to 28.7 µM; activity change, negative = inhibition: at the top concentration", "in_short": "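96 h incubation, 37 C, 5% CO2, of luciferase-reporter P. falciparum-infected RBCs (2% hematocrit, 0.05% parasitemia final) with test compounds; endpoint luminescence.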", "values": [{"smiles": "COc1ccccc1NC(=O)CCc1nnc2ccc(N3CCN(C)CC3)nn12", "Potency": "inconclusive: 16.5 µM [inhibitor, single point]"}, {"smiles": "Fc1cccc(Cl)c1Cn1nnc2c(-n3ccnc3)ncnc21", "Potency": "inconclusive: 0.415 µM [inhibitor, full curve, poor fit]"}, {"smiles": "Cn1cc(C(=O)c2ccccc2)c2ccccc21", "Potency": "inconclusive: 4.15 µM [inhibitor, single point]"}, {"smiles": "Cc1cccc(N2CCN(C(=O)C3CCN(c4nnc(-n5cccc5)s4)CC3)CC2C)c1", "note": "(centres undefined)", "Potency": "inconclusive: 8.28 µM [inhibitor, partial curve]"}, {"smiles": "C=C(C)COc1ccc(-c2n[nH]c(C)c2-c2ccc(OC)c(OC)c2)c(O)c1", "Potency": "inconclusive: 1.85 µM [inhibitor, full curve]"}, {"smiles": "COC(=O)[C@@]1(Cc2ccc(OC)cc2)[C@H]2c3cc(C(=O)N(C)C)n(CCSCCO)c3C[C@H]2CN1C(=O)c1ccccc1", "Potency": "active: 5.22 µM"}, {"smiles": "Cc1ccc(NC(=S)N(CCCN2CCCC2)Cc2cccn2Cc2ccc(Cl)cc2)cc1Cl", "activity change, negative = inhibition": "inactive: 41.3%"}, {"smiles": "Cc1ccc(NC(=O)c2cc(S(=O)(=O)NCCC3=CCCCC3)ccc2F)cc1", "Potency": "inconclusive: 11.7 µM [inhibitor, single point]"}, {"smiles": "COc1ccccc1N1CCN(C/C=C/c2ccc(N(C)C)cc2)CC1", "Potency": "inconclusive: 13.1 µM [inhibitor, partial curve]"}, {"smiles": "C=CCN1C(=O)CSc2ccc(C(=O)NCc3ccco3)cc21", "Potency": "inconclusive: 11.7 µM [inhibitor, single point]"}, {"smiles": "COc1ccc(NC(=O)CN(C)C(=O)c2ccc(N3CCCCCC3)c([N+](=O)[O-])c2)cc1", "Potency": "inconclusive: 3.7 µM [inhibitor, full curve]"}, {"smiles": "O=c1cc2c(nn1Cc1c(Cl)cccc1Cl)-c1ccccc1CC2", "Potency": "active: 5.22 µM"}, {"smiles": "Cc1ccc(NCC(=O)N/N=C/c2cccc(Oc3ccccc3)c2)cc1", "Potency": "inconclusive: 0.329 µM [inhibitor, full curve, poor fit]"}, {"smiles": "C=CCNC(=O)c1cccc(Br)c1", "activity change, negative = inhibition": "inactive: 17.7%"}, {"smiles": "COc1ccc(-n2c(-c3ccco3)nc3c(cnn3-c3ccc(C)cc3)c2=O)cc1", "Potency": "inconclusive: 2.94 µM [inhibitor, partial curve, poor fit]"}, {"smiles": "CCOc1ccc(CN2CCCC(CO)(Cc3ccccc3F)C2)cc1", "note": "(centres undefined)", "activity change, negative = inhibition": "inactive: 272%"}, {"smiles": "Cc1cc(C)c(S(=O)(=O)NC2CC2)c(C)c1", "Potency": "inconclusive: 6.57 µM [inhibitor, partial curve, poor fit]"}, {"smiles": "CCOCCCNS(=O)(=O)c1ccc2c(c1)CCN2C(=O)CC", "activity change, negative = inhibition": "inactive: 45%"}, {"smiles": "COc1ccc(CCNC(=O)C23CCC(C)(C(=O)O2)C3(C)C)cc1OC", "note": "(centres undefined)", "Potency": "inconclusive: 2.08 µM [inhibitor, full curve]"}, {"smiles": "CC(C)NC(=O)CN(Cc1ccc(F)cc1)C(=O)CCC(=O)Nc1nccs1", "activity change, negative = inhibition": "inactive: 9.63%"}, {"smiles": "COc1ccc(CCNC(=O)CCS(=O)(=O)c2ccc3c(c2)oc(=O)n3C)cc1OC", "Potency": "active: 4.15 µM"}, {"smiles": "CCOC(=O)C1=C(O)/C(=C/c2ccc(OCC(=O)O)c(OCC)c2)SC1=Nc1ccccc1", "Potency": "inconclusive: 16.5 µM [inhibitor, single point]"}, {"smiles": "O=P(O)(Cc1ccccc1)Cc1ccccc1", "Potency": "inconclusive: 4.65 µM [inhibitor, partial curve]"}, {"smiles": "COc1ccc(C(=O)C(C)OC(=O)CCN2C(=O)C3CC=CCC3C2=O)cc1", "note": "(centres undefined)", "Potency": "inconclusive: 0.0828 µM [inhibitor, full curve, poor fit]"}, {"smiles": "COc1cc(C(=O)NCC2CCCN2S(=O)(=O)c2cccs2)cc(OC)c1OC", "note": "(centres undefined)", "Potency": "inconclusive: 7.38 µM [inhibitor, partial curve, poor fit]"}, {"smiles": "CCOC(=O)N1CCN(C(=O)CCS(=O)(=O)c2ccc3c(c2)CC(C)N3C(=O)CC)CC1", "note": "(centres undefined)", "Potency": "active: 14.7 µM"}, {"smiles": "Cc1ccc(CNc2ccc(S(=O)(=O)N3CCOCC3)cc2[N+](=O)[O-])cc1", "Potency": "active: 10.4 µM"}, {"smiles": "Cc1ccc(C(=O)Nc2nc(-c3cc(Cl)sc3Cl)cs2)cc1", "Potency": "inconclusive: 18.5 µM [inhibitor, partial curve, poor fit]"}, {"smiles": "O=C(COC(=O)CCCN1C(=O)c2ccccc2C1=O)Nc1cc(Cl)cc(Cl)c1", "activity change, negative = inhibition": "inactive: -32.5%"}, {"smiles": "COc1ccc(N2CCN(C(=O)c3ccc4ccccc4n3)CC2)cc1", "activity change, negative = inhibition": "inactive: -3.54%"}, {"smiles": "O=C(Cc1cccc(C(F)(F)F)c1)N1CCCC1", "activity change, negative = inhibition": "inactive: 39.3%"}, {"smiles": "CC(C)=CCN1CCN(CCC2=C(C)CCCC2(C)C)CC1CCO", "note": "(centres undefined)", "activity change, negative = inhibition": "inactive: -14%"}, {"smiles": "COc1ccc(-c2nc(CN3CCN(C(=O)c4ccco4)CC3)c(C)o2)c(F)c1", "Potency": "inconclusive: 5.86 µM [inhibitor, partial curve, poor fit]"}, {"smiles": "CCOC(=O)/C(C)=C1\\NC(C)(C)Cc2ccccc21", "Potency": "inconclusive: 10.4 µM [inhibitor, single point]"}, {"smiles": "COc1ccccc1NC(=O)COC(=O)CCc1ccc(S(=O)(=O)N2CCOCC2)cc1", "activity change, negative = inhibition": "inactive: -9.14%"}, {"smiles": "O=C(c1ccc(CS(=O)c2cccc(Cl)c2)o1)N1CCN(C2CCCCC2)CC1", "note": "(centres undefined)", "Potency": "inconclusive: 18.5 µM [inhibitor, single point]"}, {"smiles": "CC(NC(=O)c1c(O)c2ccccc2n(C)c1=O)c1ccccc1", "note": "(centres undefined)", "Potency": "inconclusive: 11.7 µM [inhibitor, single point]"}, {"smiles": "COc1ccc(N(C(C)=O)S(=O)(=O)c2cc(OC)ccc2OC)cc1", "Potency": "active: 8.28 µM"}, {"smiles": "COc1ccc(NC(C)=O)cc1NC(=O)c1ccc(Cl)cc1", "activity change, negative = inhibition": "inactive: 0.609%"}, {"smiles": "COc1ccc(CNC(=O)c2ccc(NC(=O)CC3SC(N4CCCC4)=NC3=O)cc2)cc1", "note": "(centres undefined)", "Potency": "inconclusive: 3.29 µM [inhibitor, single point]"}, {"smiles": "COc1ccc(S(=O)(=O)N2CCN(C3Cc4ccccc4C3)CC2)cc1", "Potency": "active: 10.4 µM"}, {"smiles": "CC(=O)Oc1cccc(-c2nc3ccccc3c(=O)o2)c1", "Potency": "inconclusive: 3.7 µM [inhibitor, full curve]"}, {"smiles": "CCC(=O)NC(NCC1CCCO1)C(Cl)(Cl)Cl", "note": "(centres undefined)", "Potency": "inconclusive: 1.17 µM [inhibitor, partial curve, poor fit]"}, {"smiles": "CCOC(=O)C1CSC(CC(=O)Nc2ccc(Cl)c(Cl)c2)C(=O)N1", "note": "(centres undefined)", "Potency": "inconclusive: 11.7 µM [inhibitor, single point]"}, {"smiles": "O=C1N(Cc2cccnc2)C[C@@H]2C[C@@H](c3ccccc3C(F)(F)F)N3CCC[C@@]123", "Potency": "inconclusive: 11.7 µM [inhibitor, single point]"}, {"smiles": "c1ccc(-n2ncc3c(NCCN4CCOCC4)ncnc32)cc1", "Potency": "active: 11.7 µM"}, {"smiles": "CCCCN(CC)C(=O)Cn1cnc2ccc(S(=O)(=O)N3CCC(C)CC3)cc2c1=O", "Potency": "inconclusive: 10.4 µM [inhibitor, single point]"}, {"smiles": "CN(C)c1ccc([C@@H]2[C@@H]([N+](=O)[O-])[C@H]3C=Cc4ccccc4N3[C@H]2C(=O)c2ccc(Cl)cc2)cc1", "Potency": "inconclusive: 2.08 µM [inhibitor, full curve, poor fit]"}, {"smiles": "COc1ccc(C(=O)Nc2ccc(N3CCN(C)CC3)cc2)cc1OC", "Potency": "inconclusive: 18.5 µM [inhibitor, single point]"}, {"smiles": "COc1ccc(C(=O)Nc2ccc(S(=O)(=O)N3CCCCC3C)cc2)c(OC)c1OC", "note": "(centres undefined)", "activity change, negative = inhibition": "inactive: 23.9%"}, {"smiles": "COc1ccccc1N(C(=O)c1csnn1)C(C(=O)NC1CCCC1)c1ccccc1", "note": "(centres undefined)", "activity change, negative = inhibition": "inactive: 5.87%"}, {"smiles": "CC(C)NC(=O)c1ccc(N(Cc2ccc(Cl)cc2)S(C)(=O)=O)cc1", "Potency": "active: 10.4 µM"}, {"smiles": "COc1cc([N+](=O)[O-])ccc1NC(=O)CCCOc1ccccc1", "activity change, negative = inhibition": "inactive: -4.46%"}, {"smiles": "CC(C)N(C)CCOC(=O)c1ccc2c(c1)OCCO2", "activity change, negative = inhibition": "inactive: -23.4%"}, {"smiles": "CNC(=O)Nc1cccc(-c2cc(-c3c(Cl)cccc3Cl)no2)c1", "Potency": "inconclusive: 18.5 µM [inhibitor, single point]"}, {"smiles": "CC1CC(C)CN(CCCNC(=O)c2ccc(CS(=O)(=O)Cc3cccc(Cl)c3)o2)C1", "note": "(centres undefined)", "Potency": "inconclusive: 3.7 µM [inhibitor, partial curve]"}, {"smiles": "CCOc1c(Br)cc(C(=O)OCC(=O)N2CCc3ccccc3C2)cc1OC", "Potency": "inconclusive: 9.28 µM [inhibitor, single point]"}, {"smiles": "CCOc1ccccc1C1CC(c2ccc(Cl)cc2)Nc2nc(N)nn21", "note": "(centres undefined)", "Potency": "active: 10.4 µM"}, {"smiles": "C[C@@H]1NC(=O)c2cc([N+](=O)[O-])cc(I)c2OCC[C@@H](C(=O)NC(CC(=O)O)C(N)=O)NC(=O)[C@H](CC(N)=O)NC1=O", "note": "(some centres undefined)", "activity change, negative = inhibition": "inactive: 15.9%"}, {"smiles": "Cc1cc(OC(C(=O)O)c2ccccc2)c2c(C)c(Cc3ccccc3)c(=O)oc2c1", "note": "(centres undefined)", "Potency": "inconclusive: 10.4 µM [inhibitor, partial curve]"}, {"smiles": "Cc1ccsc1C(=O)C1CCCN(Cc2ccn[nH]2)C1", "note": "(centres undefined)", "Potency": "inconclusive: 14.7 µM [inhibitor, partial curve]"}, {"smiles": "Cc1cccc(CC(=O)NCCN2CCCCC2)c1", "Potency": "inconclusive: 16.5 µM [inhibitor, single point]"}, {"smiles": "CC(=O)Oc1ccc(Cl)cc1/C=C/c1cc(OC(C)=O)c2ccccc2n1", "Potency": "inconclusive: 13.1 µM [inhibitor, partial curve, poor fit]"}, {"smiles": "CC1(C)CC(=O)C=C(c2ccc(Cl)c(C(F)(F)F)c2)C1", "Potency": "active: 5.86 µM"}, {"smiles": "CCC(=C/c1sc2ccc3ccccc3c2[n+]1C)/C=C1\\Sc2ccc3ccccc3c2N1C", "Potency": "active: 9.28 µM"}, {"smiles": "Cc1nc2ccc(NC(=O)C3CCN(S(=O)(=O)c4cccs4)CC3)cc2s1", "Potency": "active: 9.28 µM"}, {"smiles": "Cc1cc(C)cc(N2C(=O)CN(Cc3sccc3C)C2=S)c1", "Potency": "inconclusive: 18.5 µM [inhibitor, single point]"}, {"smiles": "CC(C)Oc1ccc(/C=N/NC(=O)C(CSCc2ccccc2)NC(=O)c2ccc([N+](=O)[O-])cc2)cc1", "note": "(centres undefined)", "Potency": "inconclusive: 18.5 µM [inhibitor, single point]"}, {"smiles": "Cc1ccsc1/C=N/Nc1nc2ccccc2s1", "Potency": "inconclusive: 10.4 µM [inhibitor, single point]"}]}]}
